# Laboratory results as given in patent publication US20220041667A1, “TARGETING OF MAKAP-PDE4D3 COMPLEXES IN NEURODEGENERATIVE DISEASE” (The Board of Trustees of the Leland Stanford Junior …, priority 2018, published 2022).
# At least one compound was matched to its structure with a doubt left.
# Test system: hippocampal neurons
# Experiment: Neurite extension assay (length of longest neurite) in primary hippocampal neurons
# Assay type: cell-based, rat
# Settings: 40 mM KCl, 10 μM FSK, 100 μM IBMX, 20 μM milrinone or 10 μM rolipram for 2 days
# Protocol: Primary rat hippocampal neurons: Hippocampal cultures were prepared from Sprague Dawley rat embryonic day 18 embryos. Briefly, the rat hippocampal CA1-CA3 region was dissected in PBS medium with 10 mM D-glucose and digested with 0.05% trypsin-EDTA in PBS with 11 mM D-glucose for 30 min at 37° C. The dissociated tissues were centrifuged at 250 g for 2 min and then triturated with fire polished glass pipet in Hank's balanced salt solution (HBSS) with calcium and magnesium in plating medium (10% v/v horse serum in DMEM). Dissociated neurons were plated on nitric acid-treated 25-mm cover glass coated with poly-L-lysine in plating medium. Four hours after plating, the medium was replaced with maintenance medium supplemented with 1% N2, 2% B27 (Invitrogen, Carlsbad, Calif., USA), 5 mM D-glucose, 1 mM sodium pyruvate. Four days later, 4 μM arabinosyl cytosine was added to inhibit glial proliferation and the neurons were either transfected with JPEI or infected with adenovirus.
# Live cell imaging was performed 36-72 h after transfection/infection as described below. For neurite extension assays, the cells were cultured for two days in DMEM with 1 μg/ml chicken egg albumin and 1 mM sodium pyruvate. […] The length of the longest neurite for ˜15 neurons average per condition was measured for each experiment with ImageJ with Simple Neurite Tracer plugin. […]
structure (smiles),measurement,value
"C=C[C@@]1(C)CC(=O)[C@]2(O)[C@@]3(C)[C@@H](O)CCC(C)(C)[C@@H]3[C@H](O)[C@H](OC(C)=O)[C@@]2(C)O1 [FSK, forskolin]",effect on neurite extension (pharmacological induction),induced neurite extension
